Experimental data taken from publication PMC4726530 (PLoS ONE, 2016).
Results are given in words; binding and its absence hold for the method and conditions named. Binding seen in cells or lysates may run through a third protein. A result given as binding can be weak or reduced; the word gives no strength.

By UniProt entry, the sequences of proteins in these tests, tags left out. Where a name states a change or a piece, a line headed by the entry shows the natural chain unless it says otherwise.
UniProt F9VNL4: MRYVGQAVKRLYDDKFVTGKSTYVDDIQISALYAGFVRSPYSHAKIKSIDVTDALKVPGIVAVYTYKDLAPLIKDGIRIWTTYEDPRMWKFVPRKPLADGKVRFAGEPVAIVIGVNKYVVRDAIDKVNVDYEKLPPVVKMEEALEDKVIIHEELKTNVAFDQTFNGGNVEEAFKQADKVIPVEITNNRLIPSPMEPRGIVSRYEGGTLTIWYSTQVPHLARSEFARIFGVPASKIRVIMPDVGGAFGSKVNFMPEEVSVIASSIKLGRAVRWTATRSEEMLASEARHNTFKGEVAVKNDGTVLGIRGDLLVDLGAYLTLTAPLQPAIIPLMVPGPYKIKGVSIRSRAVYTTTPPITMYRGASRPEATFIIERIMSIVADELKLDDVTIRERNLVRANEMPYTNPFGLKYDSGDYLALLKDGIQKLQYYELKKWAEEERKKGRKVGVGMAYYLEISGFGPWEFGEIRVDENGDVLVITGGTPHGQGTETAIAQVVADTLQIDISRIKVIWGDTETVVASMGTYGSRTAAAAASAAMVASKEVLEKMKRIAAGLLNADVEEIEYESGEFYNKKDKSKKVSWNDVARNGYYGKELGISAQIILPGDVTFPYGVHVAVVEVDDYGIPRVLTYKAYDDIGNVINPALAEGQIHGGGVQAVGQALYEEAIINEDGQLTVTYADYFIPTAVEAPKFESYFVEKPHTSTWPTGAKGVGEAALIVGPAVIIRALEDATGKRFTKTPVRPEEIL
UniProt F9VNL5: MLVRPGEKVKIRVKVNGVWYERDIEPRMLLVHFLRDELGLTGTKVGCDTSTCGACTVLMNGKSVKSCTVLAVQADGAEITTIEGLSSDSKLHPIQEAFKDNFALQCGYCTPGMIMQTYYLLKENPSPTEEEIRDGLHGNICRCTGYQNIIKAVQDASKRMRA
UniProt F9VNL6: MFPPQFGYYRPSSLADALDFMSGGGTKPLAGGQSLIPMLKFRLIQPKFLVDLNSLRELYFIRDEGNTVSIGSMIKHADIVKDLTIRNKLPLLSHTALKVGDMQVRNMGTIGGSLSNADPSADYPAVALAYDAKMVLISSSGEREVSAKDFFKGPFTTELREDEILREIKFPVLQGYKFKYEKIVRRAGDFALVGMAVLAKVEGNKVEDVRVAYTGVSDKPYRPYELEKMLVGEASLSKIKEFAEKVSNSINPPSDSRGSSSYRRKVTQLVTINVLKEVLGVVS

Molecular target: STK17810, molybdo-pyranopterin L-subunit of glyceraldehyde oxidoreductase GAOR1 (Sulfolobus tokodaii (endogenous, purified from the cells)) (UniProt F9VNL4)
Assay: co-purification through successive chromatographies, subunits identified by SDS-PAGE and N-terminal sequencing; GA-oxidizing activity followed from S. tokodaii cell-free extract over DE52, Butyl Toyopearl, Q-Sepharose, hydroxyapatite and Superdex 200 at room temperature; bands of the purified enzymes blotted and sequenced

Substance | binding
STK17820, iron-sulfur S-subunit of glyceraldehyde oxidoreductase GAOR1 (from UniProt F9VNL5) | binds
STK17830, flavin M-subunit of glyceraldehyde oxidoreductase GAOR1 (from UniProt F9VNL6) | binds
